Among the data in paper PMC9474880 are binding values, retold here.

The chains behind the UniProt entries cited, without tags or fusion partners.
UniProt Q07820: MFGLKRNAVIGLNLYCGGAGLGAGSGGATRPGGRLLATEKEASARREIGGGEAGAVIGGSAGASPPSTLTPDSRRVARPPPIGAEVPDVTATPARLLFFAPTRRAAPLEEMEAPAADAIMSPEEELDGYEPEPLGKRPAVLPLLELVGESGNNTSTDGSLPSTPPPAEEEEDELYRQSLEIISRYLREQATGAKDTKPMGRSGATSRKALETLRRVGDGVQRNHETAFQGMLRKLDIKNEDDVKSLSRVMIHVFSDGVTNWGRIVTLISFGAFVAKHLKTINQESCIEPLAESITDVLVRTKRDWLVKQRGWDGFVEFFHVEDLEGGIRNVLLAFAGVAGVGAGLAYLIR
UniProt O00429: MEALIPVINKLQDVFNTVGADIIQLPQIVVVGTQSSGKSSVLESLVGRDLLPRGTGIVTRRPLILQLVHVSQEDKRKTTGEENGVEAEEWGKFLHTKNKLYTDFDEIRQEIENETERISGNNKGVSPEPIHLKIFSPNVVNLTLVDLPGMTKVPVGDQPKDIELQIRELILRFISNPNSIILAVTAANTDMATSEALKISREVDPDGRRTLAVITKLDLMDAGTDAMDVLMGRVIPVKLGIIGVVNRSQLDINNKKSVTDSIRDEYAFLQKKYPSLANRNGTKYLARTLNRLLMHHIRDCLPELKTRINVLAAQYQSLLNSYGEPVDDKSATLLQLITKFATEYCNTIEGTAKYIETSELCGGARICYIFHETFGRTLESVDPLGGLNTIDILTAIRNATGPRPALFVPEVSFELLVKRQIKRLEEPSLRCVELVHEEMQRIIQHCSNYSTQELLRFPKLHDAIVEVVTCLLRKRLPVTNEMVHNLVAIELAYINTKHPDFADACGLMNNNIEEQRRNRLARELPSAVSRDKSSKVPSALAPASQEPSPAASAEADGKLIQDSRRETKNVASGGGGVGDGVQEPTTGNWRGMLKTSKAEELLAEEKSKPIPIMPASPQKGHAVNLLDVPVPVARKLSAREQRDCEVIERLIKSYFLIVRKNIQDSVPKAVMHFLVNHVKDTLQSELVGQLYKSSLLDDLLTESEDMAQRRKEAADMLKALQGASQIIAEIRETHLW

Results are given in words; binding and its absence hold for the method and conditions named. In cells and extracts the contact can be indirect. Some entries that bind do so weakly or less than the wild type.

The target in this assay is MCL-1 (human (endogenous in primary bCAFs)) (UniProt Q07820). Description: co-IP; endogenous MCL-1 immunoprecipitated (anti-MCL-1 antibody, Protein A magnetic beads) from 200 ug of CAF lysate in CHAPS 1%, TRIS-HCl 20 mM pH 7.5, NaCl 150 mM, EDTA 1 mM; western blot for MCL-1, DRP1 or NOXA; CAFs treated or not with S63845, in presence or not of Mdivi-1.

As to “dynamin-related protein 1 (DRP-1) (from UniProt O00429 1-736)”, the binding entry was “binds”.
